Where two headings read alike, the source gives them in different places. No constants are given. Whether binding was seen depends on the method and setting. Binding seen in cells or lysates may run through a third protein. Here binding means that the protein was enriched with, or labelled near, the bait; the list need not be complete.

The chains behind the UniProt entries cited, without tags or fusion partners. Residues count along the entry.
UniProt P27695: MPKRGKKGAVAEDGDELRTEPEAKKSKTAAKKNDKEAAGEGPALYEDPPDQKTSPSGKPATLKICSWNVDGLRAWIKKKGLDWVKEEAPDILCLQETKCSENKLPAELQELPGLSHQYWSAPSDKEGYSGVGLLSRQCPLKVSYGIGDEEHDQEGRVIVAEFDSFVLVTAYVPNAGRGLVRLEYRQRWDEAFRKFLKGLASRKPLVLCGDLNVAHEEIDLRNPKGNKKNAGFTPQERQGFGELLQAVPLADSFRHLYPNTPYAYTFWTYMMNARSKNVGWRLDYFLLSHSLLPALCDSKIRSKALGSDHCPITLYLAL
UniProt P29372, residues 18-298: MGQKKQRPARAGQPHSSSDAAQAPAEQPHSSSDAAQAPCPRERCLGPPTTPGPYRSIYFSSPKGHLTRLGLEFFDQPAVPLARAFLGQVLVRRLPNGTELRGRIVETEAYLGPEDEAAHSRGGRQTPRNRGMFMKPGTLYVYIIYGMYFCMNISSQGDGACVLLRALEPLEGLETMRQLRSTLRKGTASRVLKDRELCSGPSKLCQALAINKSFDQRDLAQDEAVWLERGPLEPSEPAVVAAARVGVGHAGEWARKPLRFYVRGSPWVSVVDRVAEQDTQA

The results in this text go back to article PMC13244148.

The target in experiment [1] is His6-Strep-AMP-Rlig1 (human RNA ligase 1, AMPylated) (human) (UniProt Q8N999). Description: affinity purification with mass spectrometry; His6-Strep-Rlig1 variant on Strep-Tactin Superflow beads; RNase If digested lysate of HEK293 Rlig1-KO cells (unstressed, or 40 uM menadione for 1 h), 20 h, 4°C; washing buffer 25 mM Tris pH 7.5, 50 mM NaCl, 1 mM DTT; elution with biotin; label-free DIA MS against an uncharged bead control; only the target purified.

Experiment [2] has the same target. The description is as above. The source holds these as a separate data set.
Experiment [3] addresses His6-Strep-K57A-Rlig1 (human) (UniProt Q8N999). Description: affinity purification with mass spectrometry; as a1, but only the lysate of menadione-treated (40 uM, 1 h) HEK293 Rlig1-KO cells; only the target purified.

For the molecule “endonuclease APE1 (from UniProt P27695 1-318)”, in experiment [1], the binding entry is on record as “binds”. The same measure, in the same setting: the value for “glycosylase MPG (from UniProt P29372 18-298)” was “binds”.

B1: ANGEL2 (protein, UniProt Q5VTE6 1-544)
chain: MEAWRCVRKGYGHCVVGRGRYPMFPHHSRSLGRDWTTPWENLQRCCWNRHISSCMRWPGHYSRAPYPYFSSRHFSLNWRPPCLFESRTQFQYCNWRPDNLSQTSLIHLSSYVMNAEGDEPSSKRRKHQGVIKRNWEYICSHDKEKTKILGDKNVDPKCEDSENKFDFSVMSYNILSQDLLEDNSHLYRHCRRPVLHWSFRFPNILKEIKHFDADVLCLQEVQEDHYGAEIRPSLESLGYHCEYKMRTGRKPDGCAICFKHSKFSLLSVNPVEFFRPDISLLDRDNVGLVLLLQPKIPYAACPAICVANTHLLYNPRRGDIKLTQLAMLLAEISSVAHQKDGSFCPIVMCGDFNSVPGSPLYSFIKEGKLNYEGLPIGKVSGQEQSSRGQRILSIPIWPPNLGISQNCVYEVQQVPKVEKTDSDLTQTQLKQTEVLVTAEKLSSNLQHHFSLSSVYSHYFPDTGIPEVTTCHSRSAITVDYIFYSAEKEDVAGHPGAEVALVGGLKLLARLSLLTEQDLWTVNGLPNENNSSDHLPLLAKFRLEL
On to B1, for which the binding result in experiment [2] is “binds”.

B2: DIS3, the catalytically active subunit of the exosome complex (protein, UniProt Q9Y2L1 1-958)
chain: MLKSKTFLKKTRAGGVMKIVREHYLRDDIGCGAPGCAACGGAHEGPALEPQPQDPASSVCPQPHYLLPDTNVLLHQIDVLEDPAIRNVIVLQTVLQEVRNRSAPVYKRIRDVTNNQEKHFYTFTNEHHRETYVEQEQGENANDRNDRAIRVAAKWYNEHLKKMSADNQLQVIFITNDRRNKEKAIEEGIPAFTCEEYVKSLTANPELIDRLACLSEEGNEIESGKIIFSEHLPLSKLQQGIKSGTYLQGTFRASRENYLEATVWIHGDNEENKEIILQGLKHLNRAVHEDIVAVELLPKSQWVAPSSVVLHDEGQNEEDVEKEEETERMLKTAVSEKMLKPTGRVVGIIKRNWRPYCGMLSKSDIKESRRHLFTPADKRIPRIRIETRQASTLEGRRIIVAIDGWPRNSRYPNGHFVRNLGDVGEKETETEVLLLEHDVPHQPFSQAVLSFLPKMPWSITEKDMKNREDLRHLCICSVDPPGCTDIDDALHCRELENGNLEVGVHIADVSHFIRPGNALDQESARRGTTVYLCEKRIDMVPELLSSNLCSLKCDVDRLAFSCIWEMNHNAEILKTKFTKSVINSKASLTYAEAQLRIDSANMNDDITTSLRGLNKLAKILKKRRIEKGALTLSSPEVRFHMDSETHDPIDLQTKELRETNSMVEEFMLLANISVAKKIHEEFSEHALLRKHPAPPPSNYEILVKAARSRNLEIKTDTAKSLAESLDQAESPTFPYLNTLLRILATRCMMQAVYFCSGMDNDFHHYGLASPIYTHFTSPIRRYADVIVHRLLAVAIGADCTYPELTDKHKLADICKNLNFRHKMAQYAQRASVAFHTQLFFKSKGIVSEEAYILFVRKNAIVVLIPKYGLEGTVFFEEKDKPNPQLIYDDEIPSLKIEDTVFHVFDKVKVKIMLDSSNLQHQKIRMSLVEPQIPGISIPTDTSNMDLNGPKKKKMKLGK
Consider B2, for which the binding entry in experiment [3] and in experiment [2] was “binds” each time.

B3: CLP1 (protein, UniProt Q92989 1-425)
chain: MGEEANDDKKPTTKFELERETELRFEVEASQSVQLELLTGMAEIFGTELTRNKKFTFDAGAKVAVFTWHGCSVQLSGRTEVAYVSKDTPMLLYLNTHTALEQMRRQAEKEEERGPRVMVVGPTDVGKSTVCRLLLNYAVRLGRRPTYVELDVGQGSVSIPGTMGALYIERPADVEEGFSIQAPLVYHFGSTTPGTNIKLYNKITSRLADVFNQRCEVNRRASVSGCVINTCGWVKGSGYQALVHAASAFEVDVVVVLDQERLYNELKRDLPHFVRTVLLPKSGGVVERSKDFRRECRDERIREYFYGFRGCFYPHAFNVKFSDVKIYKVGAPTIPDSCLPLGMSQEDNQLKLVPVTPGRDMVHHLLSVSTAEGTEENLSETSVAGFIVVTSVDLEHQVFTVLSPAPRPLPKNFLLIMDIRFMDLK
Regarding B3, the binding entry in experiment [2] is listed as “binds”.
